These are yes or no findings as the source states them, for the method shown. Some binding calls cover weakened binding; strength is not graded here.

The chains behind the UniProt entries cited, without tags or fusion partners. Where a name states a change or a piece, a line headed by the entry shows the natural chain unless it says otherwise. A line that says so, or that is headed by a name, gives the form on record, which may keep a tag or linker. Residues count along the entry.
UniProt P08047, residues 2-785: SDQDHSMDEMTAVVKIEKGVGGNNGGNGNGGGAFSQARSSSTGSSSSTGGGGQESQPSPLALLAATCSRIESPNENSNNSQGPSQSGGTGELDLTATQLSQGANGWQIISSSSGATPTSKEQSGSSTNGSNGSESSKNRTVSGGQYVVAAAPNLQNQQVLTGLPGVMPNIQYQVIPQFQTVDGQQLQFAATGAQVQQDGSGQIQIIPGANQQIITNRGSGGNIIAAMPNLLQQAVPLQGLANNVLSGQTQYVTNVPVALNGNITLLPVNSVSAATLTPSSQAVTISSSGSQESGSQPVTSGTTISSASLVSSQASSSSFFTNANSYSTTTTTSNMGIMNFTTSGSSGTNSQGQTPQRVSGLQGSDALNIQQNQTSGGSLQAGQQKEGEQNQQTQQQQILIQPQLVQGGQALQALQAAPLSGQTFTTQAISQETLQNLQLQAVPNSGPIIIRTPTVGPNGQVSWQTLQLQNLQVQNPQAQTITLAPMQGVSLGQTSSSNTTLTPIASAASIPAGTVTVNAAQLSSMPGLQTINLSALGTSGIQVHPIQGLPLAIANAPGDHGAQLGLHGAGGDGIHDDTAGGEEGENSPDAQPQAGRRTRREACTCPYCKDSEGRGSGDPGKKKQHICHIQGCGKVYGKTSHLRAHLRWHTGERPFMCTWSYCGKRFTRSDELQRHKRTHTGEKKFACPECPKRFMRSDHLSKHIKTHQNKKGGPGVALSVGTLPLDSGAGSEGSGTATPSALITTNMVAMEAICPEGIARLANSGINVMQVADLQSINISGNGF
PAS2B P329T (Q99814, form named): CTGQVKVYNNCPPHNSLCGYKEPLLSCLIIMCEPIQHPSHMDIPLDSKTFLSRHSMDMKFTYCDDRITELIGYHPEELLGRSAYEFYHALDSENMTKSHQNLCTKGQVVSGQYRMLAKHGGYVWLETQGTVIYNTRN

Consider one substance from US20100074897A1, “Methods and Compositions related to HIF-1 alpha” (University of Utah Research Foundation, priority 2006, published 2010).

The target of the experiment is Sp1 of HeLa cells (UniProt P08047). The experiment is described as follows: cell culture: transfected HeLa cells, anti-Sp1 immunoprecipitation and immunoblot (FIG. 5E).

In the case of “PAS2B P329T (from UniProt Q99814 195-331)”, the binding entry is “binds”.
